Taken from: PubChem BioAssay AID652259 (Drosophila RNAi Screening Center, 2013)
In all, the deposit lists about 22,000 reagents; shown is an unselected part of those with a known target gene and a result. Of all reagents, 233 (1.1%) are marked active. 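Light values are raw, unnormalised plate reads; the ratio scores behind the reporter calls were not deposited.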 A number with no mark means an inactive call. A plus sign joins genes that one reagent is predicted to hit. Not given: the amount of reagent, the time to read-out, the dose of the treatment.

Assay: 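Identify new Wingless signalling regulators in fly cells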 (primary screen)
System: Drosophila clone 8 imaginal disc epithelial cells
Reagents: long dsRNA against Drosophila genes
Challenge: pathway stimulated by co-transfected Wingless expression plasmid
Detection: 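Dual luciferase reads per well after Wingless plasmid stimulation: reporter firefly light and Renilla control light; activity is firefly divided by Renilla, a ratio not deposited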
Direction: firefly reporter light: higher = more Wg reporter light, before normalisation; Renilla control light: higher = more transfected or surviving cells
Rule for the call: 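a knock-down is a candidate when at least two out of four statistical tests show it departing from its plate mean; one test alone signals a weak candidate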
Calls: active = candidate regulator (raises or lowers reporter); inactive = not a candidate

The opening 10 entries, ahead of the listing:
gene knocked down	dsRNA	reporter change call, replicate 1	firefly reporter light, replicate 1	firefly reporter light, replicate 2	Renilla control light, replicate 1	Renilla control light, replicate 2
Or65a	DRSC08808		2050		266	
smog	DRSC00334		3509	7811	1448	2759
smog	DRSC00335		3431	5381	816	976
CARPA	DRSC17905		23379		13077	
CARPA	DRSC21633		8.16e5	7.50e5	3.49e5	3.18e5
CG3040	DRSC22486		4.98e5	4.73e5	2.23e5	1.97e5
CG15753 (retired record)	DRSC18982		4422	7.66e5	1430	3.37e5
CG15753 (retired record)	DRSC19503		3528	8000	1360	2901
CG15753 (retired record)	DRSC19716		17275		10000	
CG15753 (retired record)	DRSC19717		16251		8729	

Results, from the start:
gene knocked down	dsRNA	reporter change call, replicate 1	firefly reporter light, replicate 1	firefly reporter light, replicate 2	Renilla control light, replicate 1	Renilla control light, replicate 2
Or65a	DRSC08808		2050		266	
smog	DRSC00334		3509	7811	1448	2759
smog	DRSC00335		3431	5381	816	976
CARPA	DRSC17905		23379		13077	
CARPA	DRSC21633		8.16e5	7.50e5	3.49e5	3.18e5
CG3040	DRSC22486		4.98e5	4.73e5	2.23e5	1.97e5
CG15753 (retired record)	DRSC18982		4422	7.66e5	1430	3.37e5
CG15753 (retired record)	DRSC19503		3528	8000	1360	2901
CG15753 (retired record)	DRSC19716		17275		10000	
CG15753 (retired record)	DRSC19717		16251		8729	
CG15753 (retired record)	DRSC19718		15987		3136	
Ccp84Ag	DRSC12592		20801		3995	
Ccp84Ag	DRSC22085		5.78e5	5.68e5	1.84e5	2.08e5
CG6865	DRSC10732		7226		2482	
CR43361	DRSC17206		26186		14201	
U2A	DRSC06445		2583	6336	864	2448
RpS20	DRSC16836		11680		3590	
CG11298	DRSC04100		1891	5451	346	2023
pasi2	DRSC16380		11898		2070	
THG	DRSC01896		3948	6630	1883	4514
CG1161	DRSC12180		14861		1856	
RpL18	DRSC11016		1643	7046	1080	3322
RpL18	DRSC22323		5.80e5	7.00e5	1.43e5	1.43e5
CG3168	DRSC18287		2183	5171	529	1716
NaPi-T	DRSC07476		6400		3008	
CG4116	DRSC18348		17354		11204	
CG13634	DRSC14635		21947		13664	
Trxr2	DRSC11900		15101		5360	
CG13708	DRSC08317		1360	6955	838	3105
Zip99C	DRSC16320		3650	7347	1335	2409
wwk	DRSC01941		3113	5124	1302	3428
CG16753	DRSC08489		7440		1035	
Set	DRSC16861		9057		2488	
CG7362	DRSC16236		18168	6.23e5	4887	3.01e5
CG31068	DRSC13820		3680		1767	
Su(var)205	DRSC03446		13512		4833	
Plod	DRSC10601		2096		1593	
Plod	DRSC10602		4786		1818	
CG17681	DRSC02632		3396	4470	1308	2640
Cyp6a23	DRSC07383		7996		3409	
CG18549	DRSC15347		16119		2117	
Tsp42Ec	DRSC06192		3077	4923	966	2140
CG43394	DRSC01013		17378		6134	
CG43394	DRSC21835		7.82e5	6.35e5	2.58e5	52
jar	DRSC16974		12541		13867	
Fip1	DRSC12147		4237		2844	
CG13203	DRSC06327		8468		2765	
Xpc	DRSC07654		8176		1296	
CG6426	DRSC06985		7552		2916	
RpS10a	DRSC14161		2741	8821	1256	2939
CG4678	DRSC19911		23298		11909	
CG4678	DRSC19912		13485		8120	
Or56a	DRSC07495		5931		2053	
Polr3G	DRSC21511		4.48e5	5.52e5	2.29e5	1.76e5
mIF2	DRSC14510		7367		3320	
mex1	DRSC11368		7684		3769	
CG14050	DRSC18594		11651		11645	
CG7950 + Rpp14a	DRSC16353		1690	4557	1052	1846
RluA-2	DRSC02939		7104		2592	
CG32112	DRSC09815		6375		3413	
RIC-3	DRSC04243		16237		4036	
RIC-3	DRSC04543		4264	14217	1116	4587
CG8093	DRSC07078		5419		1989	
Ppcs	DRSC14127		2044	6665	673	2275
SecS	DRSC12222		11915		2726	
CG17717	DRSC18130		12512		7138	
Ndf	DRSC02775		7832		2150	
CG31922	DRSC21703		8.67e5	8.36e5	4.74e5	3.81e5
CG13807	DRSC08342		4323		2600	
Cpr47Ee	DRSC06343	Wg reporter activity raised	3452		946	
Obp50c + Obp50b	DRSC05482		16752		13869	
tsu	DRSC07265		1981	8593	960	4868
CG1773	DRSC06688		11933		3337	
CG31211	DRSC14953		8153		4049	
CG31211	DRSC15344		15719		4405	
CG31211	DRSC21478		3.85e5	3.68e5	1.64e5	1.25e5
CG13230	DRSC06350		5552		3440	
babo	DRSC07581		2602	3905	962	1994
ArfGAP1	DRSC11173		6705		2473	
CG9270	DRSC03182		10860		3225	
CG12099	DRSC08253		6781		2736	
Adk2	DRSC09827		4049		1924	
CG10909	DRSC14282		16600		5589	
Vha100-3	DRSC05760		14208		11324	
Trf4	DRSC00729		2896	7456	1031	2845
Vps25	DRSC06486		4073	9959	813	2321
Pfdn4	DRSC09761		1444	9216	1427	3524
CG40439	DRSC22707		4.71e5	4.68e5	2.47e5	61504
CG34001	DRSC09042		1718		752	
CG9967	DRSC00742		11291		2586	
CG1468	DRSC17946		1643	3956	916	1738
Polr2I	DRSC16832		14580		2512	
CG17646	DRSC00507		14992		6313	
